Results: PubChem BioAssay AID1347075 (National Center for Advancing Translational Sciences (NCATS), 2019)
The whole screen tested about 400,000 compounds, of which about 5,500 (1.4%) were called active. The shares of active, inactive and inconclusive entries below differ from those in the screen. Calls come from the whole dose curve; as a rule, active = well fitted cell-killing curve with a large enough effect; inconclusive = small, poorly fitted or top-dose-only effect, or effect the other way; inactive = flat fitted curve, though single readings scatter. Potencies beside an inconclusive call are fits to weak or partial responses and may not hold up.
% is set by controls: 0 for no effect and ±100 for the full control effect; potency is the fitted concentration of half-maximal effect.

Experiment: qHTS assay for MDR1-selective chemotherapeutics: Primary screen using the parental adenocarcinoma cell KB-3-1; note: nearly all actives have a fitted effect of over 60% in size
Details: KB-3-1 viability, CellTiter-Glo ATP luminescence, 72 h; activity change, negative = cytotoxic: at 46.1 µM (top of the series)
In short: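 Cytotoxicity in the drug-sensitive parental line KB-3-1 was scored as loss of CellTiter-Glo luminescence following 72 h incubation with compound. Values come from curve fitting of normalized concentration-response data.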
In the case of `COc1ccc(C(C)C)cc1S(=O)(=O)N1CCN(c2ccccc2)CC1`, the Potency was inconclusive: 23.1 µM [cytotoxic, single point].
In the case of `O=C1c2cccc(OCc3ccc(F)cc3)c2CCN1Cc1ccc(F)cc1`, the Potency was active: 2.91 µM.
With `c1ccc2c(CCc3c[nH]c4ccccc34)ccnc2c1` the Potency was inconclusive: 4.61 µM [cytotoxic, full curve].
With `C=CCn1c(SCc2cc(=O)n3ccsc3n2)nc2sc(C)c(C)c2c1=O` the Potency was inconclusive: 18.4 µM [cytotoxic, partial curve].
In the case of `CCc1cc2c(=O)c(-c3nc4ccccc4[nH]3)coc2cc1OC(=O)N1CCOCC1`, the Potency was inconclusive: 2.91 µM [rising, partial curve].
For `CCCCNC(=O)C[C@@H]1C[C@@]2(C(=O)OCC)CCC=C2N(Cc2ccc(Cl)cc2Cl)C1=O`, the Potency was inconclusive: 29.1 µM [cytotoxic, single point].
With `CC(C)(CNC(=O)c1cc(-c2ccc(Cl)s2)nc2ccccc12)N1CCOCC1` the Potency was “inactive”.
For `CC(C)c1nc(SCC(=O)Nc2c[nH]c(=O)[nH]c2=O)c2cnn(-c3ccccc3)c2n1`, the Potency was “inactive”.
In the case of `COc1ccc(C=O)cc1C1=CC(=O)C[C@H](c2ccc(Cl)cc2)C1`, the Potency was inconclusive: 25.9 µM [cytotoxic, single point].
With `COc1cccc(-c2cc3nc(Nc4ccc(OC)c(OC)c4)n(C)c(=O)c3s2)c1` the Potency was “inactive”.
For `Cc1cc(OC(C)C(=O)Nc2c(C(=O)c3ccc(F)cc3)oc3ccccc23)ccc1Cl` (centres undefined), the Potency was “inactive”.
In the case of `O=C(CCl)Nc1cccc(S(=O)(=O)N2CCCCCC2)c1`, the Potency was active: 16.4 µM.
For `Cc1ccccc1Cn1c(CN2CCN(C(=O)c3ccco3)CC2)nc2c1c(=O)n(C)c(=O)n2C`, the Potency was inconclusive: 2.91 µM [cytotoxic, full curve].
For `CCc1ccc(Sc2cc(C(=O)NCc3cccc(OC)c3)c3ccccc3n2)cc1`, the Potency was “inactive”.
For `CCOC(=O)c1c(C)n(-c2ccc(C)cc2)c2c(C(C(C)=O)C(=O)O)c(Br)c(O)c(O)c12` (centres undefined), the Potency was “inactive”.
For `O=[N+]([O-])c1ccc(NCCNS(=O)(=O)c2ccccc2)cc1`, the Potency was inconclusive: 14.6 µM [rising, partial curve].
For `Cc1c(C(=O)NCc2ccc(F)cc2)sc(=O)n1Cc1ccccc1`, the Potency was “inactive”.
With `Cc1cc(C)nc(/N=C(\N)Nc2ccc(-c3ccccc3)cc2)n1` the Potency was active: 16.4 µM.
In the case of `COc1cc(-c2cc(N)n(S(=O)(=O)c3ccc(F)cc3)n2)cc(OC)c1OC`, the Potency was inconclusive: 9.2 µM [cytotoxic, single point].
With `Nc1nc(N)nc(-c2cc(O)ccc2O)n1` the Potency was inconclusive: 20.6 µM [cytotoxic, single point].
For `Cn1cc([N+](=O)[O-])c(C(=O)NC2CCCC2)n1`, the Potency was “inactive”.
In the case of `Cc1cc(N/N=C/c2c(O)ccc3ccccc23)nc(-c2ccccc2O)n1`, the Potency was inconclusive: 29.1 µM [cytotoxic, single point].
With `Cc1cc(NC(=O)Nc2ccccc2F)ccc1Br` the Potency was inconclusive: 2.91 µM [cytotoxic, full curve, poor fit].
With `CCOc1ccc(NC(=O)CSC2=Nc3ccccc3C3=NC(CCC(=O)NCc4ccccc4)C(=O)N23)cc1` (centres undefined) the Potency was inconclusive: 18.4 µM [cytotoxic, single point].
In the case of `S=C(Nc1ccc(Cl)c(Cl)c1)N1CCCC1`, the Potency was inconclusive: 29.1 µM [cytotoxic, single point].
With `CN[C@H]1CCc2cc(OC)c(OC)c(OC)c2-c2ccc(N(C)CC(OC)OC)c(=O)cc21` the Potency was active: 2.59 µM.
In the case of `Cc1cccc(Cn2c(=O)c3c(nc4n3CCCN4Cc3ccccc3)n(C)c2=O)c1`, the Potency was inconclusive: 35.5 µM [cytotoxic, single point].
For `Cc1ccccc1OCc1nnc(SCc2cc(=O)[nH]c3ccccc23)n1-c1ccccc1`, the Potency was inconclusive: 18.4 µM [cytotoxic, single point].
For `O=C(Nc1nc(-c2cc(F)ccc2F)cs1)c1cccc(N2C(=O)CCC2=O)c1`, the Potency was inconclusive: 13 µM [rising, partial curve].
With `CC(C)N1CCN(c2ccc(OCC3COC(Cn4cncn4)(c4ccc(Cl)cc4Cl)O3)cc2)CC1` (centres undefined) the Potency was inconclusive: 29.1 µM [cytotoxic, single point].
In the case of `FC(F)C(F)(F)Oc1cccc(Nc2nccn3c(-c4cccc5cccnc45)cnc23)c1`, the Potency was inconclusive: 29.1 µM [cytotoxic, partial curve, poor fit].
For `O=C(Nc1ccc(Br)cc1)c1ccc(F)c(S(=O)(=O)NCc2cccs2)c1`, the Potency was inconclusive: 18.4 µM [cytotoxic, partial curve, poor fit].
In the case of `COc1ccc(/C=C/c2nccc3ccccc23)cc1OC`, the Potency was inconclusive: 32.6 µM [cytotoxic, single point].
In the case of `CC1=NOC(=O)/C1=C\c1ccc2c(c1)OCO2`, the Potency was “inactive”.
For `O=C(O)CCN1C(=O)/C(=C2\C(=O)N(Cc3ccc(F)cc3)c3ccccc32)SC1=S`, the Potency was “inactive”.
With `CN(c1ccccc1)S(=O)(=O)c1cc(C(=O)Nc2nc3ccccc3[nH]2)ccc1Cl` the Potency was inconclusive: 29.1 µM [cytotoxic, single point].
In the case of `CC(C)Nc1ncnc2c1ncn2[C@H]1CN(Cc2ccc3c(c2)OCO3)C[C@@H](CO)O1`, the Potency was “inactive”.
In the case of `O=c1[nH]c2cc3ccccc3cc2nc1-c1nnnn1Cc1ccccc1`, the Potency was inconclusive: 29.1 µM [cytotoxic, single point].
For `Nc1c(C(=O)NCc2ccccc2)nnn1Cc1cccc(Cl)c1`, the Potency was active: 20.6 µM.
For `O=c1nccc(N/N=C/c2ccccc2O)[nH]1`, the Potency was active: 6.51 µM.
With `COc1cc([N+](=O)[O-])cc(/C=N/NC(=O)Cn2nccc2C)c1O` the Potency was inconclusive: 29.1 µM [cytotoxic, partial curve, poor fit].
In the case of `C=CC[N+](C)(C)c1ccc(CCC(=O)CCc2ccc([N+](C)(C)CC=C)cc2)cc1`, the Potency was “inactive”.
In the case of `Cc1c(C(=O)OCCN2CCCCC2)oc2ccccc12`, the Potency was inconclusive: 1.64 µM [rising, partial curve].
In the case of `Cc1ccnc2c(N3C(=O)C4C5c6ccccc6C(c6ccccc65)C4C3=O)cccc12` (centres undefined), the Potency was inconclusive: 20.6 µM [cytotoxic, single point].
For `CCOC(=O)c1ccc(N2C(=O)c3[nH]nc(-c4ccc(C)cc4)c3C2c2cccc(F)c2)cc1` (centres undefined), the Potency was inconclusive: 29.1 µM [cytotoxic, single point].
In the case of `COc1cc(C(=O)Nc2ccccc2N2CCOCC2)ccc1OCC(=O)N1CCOCC1`, the Potency was inconclusive: 29.1 µM [rising, single point].
With `Cc1ccccc1NC(=O)c1[nH]cnc1C(=O)NN` the activity change, negative = cytotoxic was inconclusive: 35.2%.
In the case of `Cc1cc(C)c(C(=O)CC(=O)c2ccccc2Cl)c(O)c1`, the Potency was inconclusive: 32.6 µM [cytotoxic, single point].
With `O=C(CCN1C(=O)/C(=C\c2ccccc2)SC1=S)NCCCN1CCOCC1` the Potency was “inactive”.
In the case of `COc1cnc(-c2ccccn2)nc1Sc1ccc(Cl)cc1`, the Potency was inconclusive: 29.1 µM [cytotoxic, single point].
In the case of `O=C(NCC(c1cccs1)N1CCOCC1)c1ccco1` (centres undefined), the Potency was inconclusive: 18.4 µM [cytotoxic, single point].
In the case of `CC(=O)Nc1c(Cl)cc2c(c1Cl)Cc1cc(C#N)ccc1-2`, the Potency was active: 1.16 µM.
For `COCCNC(=O)C(=O)Nc1ccc2c(c1)N(S(=O)(=O)c1cccs1)CCC2`, the Potency was inconclusive: 2.06 µM [cytotoxic, full curve, poor fit].
For `CSC(=CC(=O)c1ccccc1)SC`, the Potency was “inactive”.
With `O=C(Cn1c(=O)n(Cc2nc(-c3ccccc3)no2)c(=O)c2cc3c(cc21)OCO3)Nc1ccc(Cl)cc1` the Potency was “inactive”.
In the case of `COc1ccc2[nH]c(C)c(CCNC(=S)Nc3cccc(C)c3C)c2c1`, the Potency was “inactive”.
In the case of `NC1=C(Br)C(=O)c2ccccc2C1=O`, the Potency was inconclusive: 20.6 µM [cytotoxic, single point].
In the case of `CCN1/C(=C2\C(=O)N(C)C(=S)N2C)C=Cc2ccccc21`, the Potency was inconclusive: 13 µM [cytotoxic, partial curve].
For `COc1cccc(OCc2cc(/C=N/NC(=O)c3ccn[nH]3)ccc2OC)c1`, the Potency was inconclusive: 18.4 µM [cytotoxic, single point].
In the case of `OCc1ccccc1OCCOc1ccc(Cl)c2cccnc12`, the Potency was inconclusive: 32.6 µM [cytotoxic, single point].
In the case of `Cc1cccc(N2CN(S(=O)(=O)c3cccc([N+](=O)[O-])c3)c3nc4ccccc4nc32)c1`, the Potency was inconclusive: 0.92 µM [rising, full curve].
With `O=C(CC(SCCO)c1ccc([N+](=O)[O-])cc1)c1ccco1` (centres undefined) the Potency was active: 20.6 µM.
In the case of `Cc1nc(N2CCN(Cc3ccc4c(c3)OCO4)CC2)c2oc3ccccc3c2n1`, the Potency was inconclusive: 29.1 µM [cytotoxic, single point].
With `CCC(=O)Nc1ccc(C(=O)Nc2cccc(OC)c2)cc1` the Potency was inconclusive: 0.0116 µM [rising, full curve].
With `COc1cccc(-c2nc3nc(C)cc(C)n3c2Nc2c(C)cccc2C)c1` the Potency was inconclusive: 16.4 µM [cytotoxic, single point].
In the case of `NC(c1ccccc1)c1csc(NC(=O)Nc2cccc(C(F)(F)F)c2)n1` (centres undefined), the Potency was inconclusive: 29.1 µM [cytotoxic, single point].
For `CCCC(=O)NC(c1ccc2c(c1)OCO2)c1cc(Cl)c2cccnc2c1O` (centres undefined), the Potency was inconclusive: 14.6 µM [cytotoxic, partial curve].
In the case of `CCCCN(C)S(=O)(=O)c1cc(-c2nnc3c4ccccc4c(C)nn23)ccc1C`, the Potency was “inactive”.
In the case of `Cc1ccc2c(c1)-c1c(ssc1=S)C(C)(C)N2C(=O)CSc1nncn1C`, the Potency was inconclusive: 20.6 µM [cytotoxic, single point].
